Values of other authors as cited in patent US20060217425A1, “Methods of treating cancer using PPAR-gamma antagonists” (priority 2005, published 2006).
At least one structure is not confirmed: it was looked up by name or label, or the drawing left a doubt.

System: selected epithelial cancer cell lines
Conditions: in vitro and in vivo, background; cited from earlier work

Cc1c(C)c2c(c(C)c1O)CCC(C)(COc1ccc(CC3SC(=O)NC3=O)cc1)O2 (stereo not shown) [troglitazone]
growth of selected epithelial cancer cell lines: inhibit the in vitro and in vivo growth
